Measured values reported in US20110124614A1, “Methods And Compositions For The Treatment of Autoimmune Disorders” (priority 2008, published 2011).

Tested on: endogenous steroid hormones (E2, progesterone, testosterone, corticosteroid) in sera
Experiment: Serum endogenous steroid hormone levels after treatment
Format: in vivo, mouse
Details: 3.7 mg G-1 (so in the source), FIG. 3

CC(=O)c1ccc2c(c1)C1C=CCC1C(c1cc3c(cc1Br)OCO3)N2 (centres unmarked) [G-1]
serum level of corticosteroid: only slightly lowered | serum levels of other steroid hormones (E2, progesterone, testosterone): did not change; also recorded: did not affect any of the other steroid hormones tested

“Also recorded” adds a separate entry of the source.
